# PubChem BioAssay AID602196, INSERM – 2012
# Assay: 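Knock-downs that protect lung cancer cells from cisplatin or sensitise them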
# System: human A549 lung cancer cells
# Reagents: siRNA pair against human genes
# Timing: 48 h transfection before cisplatin; time from cisplatin to read-out not stated
# Conditions: cisplatin at a dose killing half of control-siRNA cells; exact dose and duration not given
# Measurement: 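Shift in cisplatin death relative to control siRNA, from -50 (all cells die) to +50 (no cells die); siRNAs harmful on their own scored 0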
# Reading the numbers: two-siRNA summed score (-2 to +2): higher = both siRNAs protect from cisplatin killing; -2 means both sensitise; mean protection from cisplatin (shift in death) and protection from cisplatin (shift in death), siRNA C and protection from cisplatin (shift in death), siRNA D: higher = protection from cisplatin killing
# Hit rule: 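siRNAs harmful alone (LDH or WST-1) get 0; others get +1 for less and -1 for more cisplatin killing; genes are active when the two siRNAs give the same sign, summing to ±2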
# Meaning of the calls: active = both siRNAs shift cisplatin killing the same way; inactive = no consistent shift, or siRNA harmful alone
# Here is an unselected part of about 23,000 deposited reagents. Of all reagents, 455 (2%) are marked active. 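Active includes both protection and sensitisation; some change values fall well beyond the stated -50 to +50 range.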 A number with no mark means an inactive call. Reagent sequences are not shown. Not given: the amount of reagent.
Gene,two-siRNA summed score (-2 to +2),mean protection from cisplatin (shift in death) (%),"protection from cisplatin (shift in death), siRNA C (%)","protection from cisplatin (shift in death), siRNA D (%)"
DMAP1,0,-2.9,-1.6,-4.2
SPAG5,0,-16.3,-7.9,-24.7
TSSK3,1,12.3,14.2,10.4
LOC392217,1,16.3,28.4,4.2
LOC400552,0,-1.5,-15.5,12.5
PXMP4,0,2,1.5,2.4
IRX6,1,13.1,3,23.3
ZFP14,0,11.5,19.3,3.8
ATAD3B,0,-3.1,-6.2,0
ANKRD20A1,0,3.1,-3,9.2
C10orf143,0,3.5,-1.1,8.1
ARF4,0,-6.1,-11.8,-0.4
EID3,1,12.2,4.7,19.7
CHRNA6,0,7.6,10.4,4.7
LOC91353,0,-4.6,-2.6,-6.5
PCDHB12,0,-4.8,-5,-4.6
SLC18B1,0,1.9,5.3,-1.4
PHYHD1,1,15.6,20.3,10.9
TMEM14C,0,11.9,21.5,2.2
SERPINA12,1,11.2,23.6,-1.1
LOC441616,1,10.8,7.6,14
LOC401467,0,9.5,8.9,10.1
CDR2,1,4.5,-1.8,10.7
ZNF207,0,-6.1,-13.2,1
RDH10,0,-3.3,10.7,-17.3

Part of the list above, set out differently.
{"Gene":"ARF4","two-siRNA summed score (-2 to +2)":0,"mean protection from cisplatin (shift in death) (%)":-6.1,"protection from cisplatin (shift in death), siRNA C (%)":-11.8,"protection from cisplatin (shift in death), siRNA D (%)":-0.4}
{"Gene":"EID3","two-siRNA summed score (-2 to +2)":1,"mean protection from cisplatin (shift in death) (%)":12.2,"protection from cisplatin (shift in death), siRNA C (%)":4.7,"protection from cisplatin (shift in death), siRNA D (%)":19.7}
{"Gene":"CHRNA6","two-siRNA summed score (-2 to +2)":0,"mean protection from cisplatin (shift in death) (%)":7.6,"protection from cisplatin (shift in death), siRNA C (%)":10.4,"protection from cisplatin (shift in death), siRNA D (%)":4.7}
{"Gene":"LOC91353","two-siRNA summed score (-2 to +2)":0,"mean protection from cisplatin (shift in death) (%)":-4.6,"protection from cisplatin (shift in death), siRNA C (%)":-2.6,"protection from cisplatin (shift in death), siRNA D (%)":-6.5}
{"Gene":"PCDHB12","two-siRNA summed score (-2 to +2)":0,"mean protection from cisplatin (shift in death) (%)":-4.8,"protection from cisplatin (shift in death), siRNA C (%)":-5,"protection from cisplatin (shift in death), siRNA D (%)":-4.6}
{"Gene":"SLC18B1","two-siRNA summed score (-2 to +2)":0,"mean protection from cisplatin (shift in death) (%)":1.9,"protection from cisplatin (shift in death), siRNA C (%)":5.3,"protection from cisplatin (shift in death), siRNA D (%)":-1.4}
{"Gene":"PHYHD1","two-siRNA summed score (-2 to +2)":1,"mean protection from cisplatin (shift in death) (%)":15.6,"protection from cisplatin (shift in death), siRNA C (%)":20.3,"protection from cisplatin (shift in death), siRNA D (%)":10.9}
{"Gene":"TMEM14C","two-siRNA summed score (-2 to +2)":0,"mean protection from cisplatin (shift in death) (%)":11.9,"protection from cisplatin (shift in death), siRNA C (%)":21.5,"protection from cisplatin (shift in death), siRNA D (%)":2.2}
{"Gene":"SERPINA12","two-siRNA summed score (-2 to +2)":1,"mean protection from cisplatin (shift in death) (%)":11.2,"protection from cisplatin (shift in death), siRNA C (%)":23.6,"protection from cisplatin (shift in death), siRNA D (%)":-1.1}
{"Gene":"LOC441616","two-siRNA summed score (-2 to +2)":1,"mean protection from cisplatin (shift in death) (%)":10.8,"protection from cisplatin (shift in death), siRNA C (%)":7.6,"protection from cisplatin (shift in death), siRNA D (%)":14}

The list goes on.
Gene,two-siRNA summed score (-2 to +2),mean protection from cisplatin (shift in death) (%),"protection from cisplatin (shift in death), siRNA C (%)","protection from cisplatin (shift in death), siRNA D (%)"
LOC442115,1,29.3,33,25.7
CCDC9B,0,-4.1,0.3,-8.5
IQSEC1,0,-5.7,-10.3,-1
TAOK1,1,10.9,30,-8.2
AFAP1L2,0,5.5,4.1,6.9
DKFZp564C0469,0,1.4,2.9,-0.1
LOC388897,0,1.6,-5.9,9.1
SEZ6L,0,-13.6,-4.3,-22.9
CORO7,0,4.3,-0.2,8.8
DIO3,0,14.4,17.3,11.4
ODF4,0,3.1,11,-4.8
ORAI2,0,-13.2,-23,-3.4
CA1,0,-3,-0.5,-5.4
MCRIP2,0,9.8,8.1,11.6
LOC402637,0,12.7,6.7,18.6
FOXN1,0,5.8,18.1,-6.5
ACAD10,1,21.4,4,38.8
LOC131076,0,13.2,20.1,6.3
IL4I1,0,0.5,-1.4,2.3
SLC22A3,0,5.9,13.8,-2
MARS2,1,12.1,22.5,1.7
EGR4,0,-6.6,-8.8,-4.4
ZNF226,1,10,4.8,15.3
ZNF326,0,6.3,3.4,9.1
DPP4,0,4.9,-3.8,13.6
SDHB,0,-0.2,-7.8,7.4
DSEL,0,2.9,7.9,-2.1
TPD52L2,0,2.1,8.2,-4
OR2A5,0,21,10,32
DEFB118,0,9.4,9.9,9
PSTK,0,6.5,9.5,3.5
LHX2,0,2.3,-2.7,7.4
OR13C5,0,11.9,30.4,-6.5
FOXC1,0,12,17.5,6.6
F2,-1,-3.3,-13.9,7.2
COL24A1,0,5.2,5.4,4.9
SPHAR (retired record),0,9.1,5.1,13
MED11,0,0,-0.2,0.2
LOC442497,0,3.3,10.4,-3.8
MLXIPL,2 (active),25.8,27.4,24.3
DHX9,0,9.6,3.6,15.5
CTSZ,-1,-9.2,1.7,-20.1
LOC401061,0,4.8,8.8,0.7
FOXJ2,1,5.3,16,-5.4
IFRD1,0,8.5,12.6,4.4
LOC401233,0,-9.2,-6.2,-12.1
LOC148915,0,3.6,7,0.1
LOC401490 (retired record),0,11.5,11.8,11.3
